Publication PMC4223510
No constants are given. Whether binding was seen depends on the method and setting. Binding seen in cells or lysates may run through a third protein. A yes stands for co-enrichment or nearness to the bait. Other partners may have been found.

Molecular target: TAP-tagged HIV-1 NL4-3 Pol (TAP-Pol) (HIV-1 strain NL4-3)
Assay: affinity purification with mass spectrometry; tandem affinity purification of TAP-Pol from lysate of stably transfected 293T cells (IgG beads, TEV release, calmodulin beads, EGTA elution); bands of a 10% SDS-PAGE gel identified by LC/MS; a cell line with the TAP tag only as control

B1: A-kinase anchoring protein 95-like protein (HAP95), endogenous (protein, UniProt Q9ULX6 1-646)
chain: MSYTGFVQGSETTLQSTYSDTSAQPTCDYGYGTWNSGTNRGYEGYGYGYGYGQDNTTNYGYGMATSHSWEMPSSDTNANTSASGSASADSVLSRINQRLDMVPHLETDMMQGGVYGSGGERYDSYESCDSRAVLSERDLYRSGYDYSELDPEMEMAYEGQYDAYRDQFRMRGNDTFGPRAQGWARDARSGRPMASGYGRMWEDPMGARGQCMSGASRLPSLFSQNIIPEYGMFQGMRGGGAFPGGSRFGFGFGNGMKQMRRTWKTWTTADFRTKKKKRKQGGSPDEPDSKATRTDCSDNSDSDNDEGTEGEATEGLEGTEAVEKGSRVDGEDEEGKEDGREEGKEDPEKGALTTQDENGQTKRKLQAGKKSQDKQKKRQRDRMVERIQFVCSLCKYRTFYEDEMASHLDSKFHKEHFKYVGTKLPKQTADFLQEYVTNKTKKTEELRKTVEDLDGLIQQIYRDQDLTQEIAMEHFVKKVEAAHCAACDLFIPMQFGIIQKHLKTMDHNRNRRLMMEQSKKSSLMVARSILNNKLISKKLERYLKGENPFTDSPEEEKEQEEAEGGALDEGAQGEAAGISEGAEGVPAQPPVPPEPAPGAVSPPPPPPPEEEEEGAVPLLGGALQRQIRGIPGLDVEDDEEGGGGAP
binding: binds
